For at least one compound, name, drawing or mass did not settle the structure.
Assays:
[1] = tested on: DU145 cells; test: Intracellular delivery and nuclear accumulation of FITC-labelled CONJUGATES, laser scanning cytometer; assay type: cell-based; settings: 18 h, 0.1, 1 and 10 μM, LSC, background gate from cells treated with fluorescein alone
[2] = tested on: HCT15 cells; test: as above; assay type: cell-based; settings: 18 h, 0.1, 1 and 10 μM, LSC, background gate from cells treated with fluorescein alone

Compound: O=C1OC2(c3ccc(O)cc3Oc3cc(O)ccc32)c2ccccc21 [fluorescein]
- Intracellular delivery and nuclear accumulation (green fluorescence) [1]: contrary to the control fluorescein all tested CONJUGATES are accumulating in the cells
- Intracellular delivery and nuclear accumulation (green fluorescence) [2]: contrary to the control fluorescein all tested CONJUGATES are accumulating in the cells

Source: US20050118101A1, “Beta-homolysine conjugates and their use as transport enhancer” (priority 2002, published 2005)
